{"sequences": {"note": "By UniProt entry, the sequences of proteins in these tests, tags left out. Where a name states a change or a piece, a line headed by the entry shows the natural chain unless it says otherwise. Residues count along the entry.", "UniProt P15941, residues 1110-1154": "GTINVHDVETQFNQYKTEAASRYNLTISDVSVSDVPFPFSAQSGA", "UniProt P15531": "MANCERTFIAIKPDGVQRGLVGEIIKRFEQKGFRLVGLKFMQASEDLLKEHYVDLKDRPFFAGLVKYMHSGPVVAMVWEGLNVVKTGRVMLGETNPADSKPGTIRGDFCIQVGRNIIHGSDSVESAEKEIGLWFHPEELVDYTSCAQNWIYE", "UniProt P22392": "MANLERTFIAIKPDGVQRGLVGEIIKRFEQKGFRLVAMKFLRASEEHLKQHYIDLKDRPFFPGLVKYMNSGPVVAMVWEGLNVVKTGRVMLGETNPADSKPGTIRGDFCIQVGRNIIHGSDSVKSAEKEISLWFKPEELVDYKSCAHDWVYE"}, "source": "paper PMC2329594", "about": "“A Minimal Fragment of MUC1 Mediates Growth of Cancer Cells” (PLoS ONE, 2008)", "key": {"[1]": {"biological_target": "MUC1*_(1110-ecd) peptide (human) (UniProt P15941)", "test": "gold nanoparticle aggregation (colour change); histidine-tagged peptides (100 uM in PBS) on NTA-Ni gold nanoparticles, alone or mixed; colour change after 15 minutes; both purified"}, "[2]": {"biological_target": "T1, Irrelevant peptide (SPR control surface)", "T1 sequence (peptide)": "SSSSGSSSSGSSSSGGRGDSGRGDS", "test": "SPR; Biacore3000; His-tagged peptides on NTA-Ni SAM chips; 35 uL plugs of NM23 at 5 uL/minute; bovine NM23 in PBS, recombinant human NM23 in PBS with 15 mM imidazole; control peptide on a second flow channel; 1:1 Langmuir model; both purified"}, "[3]": {"biological_target": "T2, Irrelevant peptide (ligand fishing control, Figure S3)", "T2 sequence (peptide)": "ARKCSLTGKWTNDLGSNMT", "test": "pull-down; MUC1*1110-ecd or irrelevant peptide on NTA-agarose beads; T47D cell lysate in PBS with 0.1% NP40 (text: lysate/supernatant mixtures); eluted with 250 mM imidazole; SDS-PAGE, silver staining, N-terminal microsequencing of the bands; only the target purified"}, "[4]": {"biological_target": "MUC1*_(1110-ecd) peptide (human) (UniProt P15941)", "test": "pull-down; MUC1*1110-ecd or irrelevant peptide on NTA-agarose beads; T47D cell lysate in PBS with 0.1% NP40 (text: lysate/supernatant mixtures); eluted with 250 mM imidazole; SDS-PAGE, silver staining, N-terminal microsequencing of the bands; only the target purified"}}, "note": "These are yes or no findings as the source states them, for the method shown. For some assays here: In cells and extracts the contact can be indirect. Some entries that bind do so weakly or less than the wild type.", "data": [{"substance": "MUC1*_(1110-ecd) peptide (from UniProt P15941 1110-1154)", "values": [{"measurement": "binding", "setting": "[1]", "value": "no binding"}]}, {"substance": "NM23 (as injected at 15 nM in Figure 4E) (from UniProt P15531 1-152)", "values": [{"measurement": "binding", "setting": "[2]", "value": "no binding (tested: 15 nM)"}]}, {"substance": "NM23 isoform H1 (23 kDa band from T47D cells) (from UniProt P15531 1-152)", "values": [{"measurement": "binding", "setting": "[3]", "value": "no binding"}]}, {"substance": "NM23 isoform H2 (17 kDa band from T47D cells) (from UniProt P22392 1-152)", "values": [{"measurement": "binding", "setting": "[3]", "value": "no binding"}, {"measurement": "binding", "setting": "[4]", "value": "binds"}]}]}
